Experimental data as given in the supplement of paper PMC10849652.
The other results are listed elsewhere or left out. Residues, ends and D or L forms follow the SMILES beside them. *: point of attachment. Cbz = O=C(OCc1ccccc1)*

Protein sequences, listed by entry. Tags and fused reporters are not part of them. Lines headed by an entry give the natural chain unless they say otherwise; changes in a name come on top.
UniProt P19526, whole entry, looked up: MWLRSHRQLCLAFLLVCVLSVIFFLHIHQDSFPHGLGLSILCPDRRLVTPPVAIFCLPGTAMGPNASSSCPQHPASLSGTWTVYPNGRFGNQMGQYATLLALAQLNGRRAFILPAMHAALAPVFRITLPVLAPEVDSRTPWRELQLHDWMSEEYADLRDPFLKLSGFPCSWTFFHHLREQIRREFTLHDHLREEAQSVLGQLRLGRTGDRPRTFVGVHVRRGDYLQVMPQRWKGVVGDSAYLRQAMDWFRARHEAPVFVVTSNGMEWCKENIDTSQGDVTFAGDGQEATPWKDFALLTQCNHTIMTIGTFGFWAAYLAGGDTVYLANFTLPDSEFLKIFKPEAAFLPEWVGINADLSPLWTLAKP
UniProt Q9UM11, whole entry, looked up: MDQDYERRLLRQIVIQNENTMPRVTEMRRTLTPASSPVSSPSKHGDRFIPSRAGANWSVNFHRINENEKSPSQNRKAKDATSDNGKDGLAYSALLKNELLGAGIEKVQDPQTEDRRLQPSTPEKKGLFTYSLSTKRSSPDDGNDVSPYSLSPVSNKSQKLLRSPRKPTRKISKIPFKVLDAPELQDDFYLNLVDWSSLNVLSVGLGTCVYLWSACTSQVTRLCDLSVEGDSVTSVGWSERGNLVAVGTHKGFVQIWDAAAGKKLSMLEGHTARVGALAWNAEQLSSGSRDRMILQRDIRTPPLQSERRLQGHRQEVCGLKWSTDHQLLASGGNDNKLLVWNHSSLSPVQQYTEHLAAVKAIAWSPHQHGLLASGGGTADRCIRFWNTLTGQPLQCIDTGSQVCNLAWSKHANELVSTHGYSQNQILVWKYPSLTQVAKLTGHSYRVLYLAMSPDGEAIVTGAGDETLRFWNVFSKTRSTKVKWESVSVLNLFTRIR
UniProt Q3B7J2: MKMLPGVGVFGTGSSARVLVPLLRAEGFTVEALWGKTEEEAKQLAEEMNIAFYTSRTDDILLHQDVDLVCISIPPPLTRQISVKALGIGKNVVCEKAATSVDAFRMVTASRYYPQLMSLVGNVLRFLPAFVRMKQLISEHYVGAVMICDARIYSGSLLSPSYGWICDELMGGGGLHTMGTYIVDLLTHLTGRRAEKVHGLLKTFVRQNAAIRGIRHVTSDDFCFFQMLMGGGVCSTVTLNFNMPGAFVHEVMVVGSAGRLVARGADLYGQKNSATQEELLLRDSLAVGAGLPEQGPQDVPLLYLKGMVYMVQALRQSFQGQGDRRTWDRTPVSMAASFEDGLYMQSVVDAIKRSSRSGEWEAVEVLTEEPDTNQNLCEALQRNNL
UniProt Q9BUM1: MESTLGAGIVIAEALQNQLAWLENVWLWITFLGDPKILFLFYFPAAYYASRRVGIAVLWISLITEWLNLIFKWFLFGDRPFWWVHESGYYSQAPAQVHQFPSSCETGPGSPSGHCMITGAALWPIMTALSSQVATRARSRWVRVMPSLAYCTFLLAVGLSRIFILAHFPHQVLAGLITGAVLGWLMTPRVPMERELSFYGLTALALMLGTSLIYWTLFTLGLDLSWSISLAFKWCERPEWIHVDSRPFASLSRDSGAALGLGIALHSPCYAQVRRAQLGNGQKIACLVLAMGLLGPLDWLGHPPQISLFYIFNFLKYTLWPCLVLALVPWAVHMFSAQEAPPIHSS
UniProt P16383: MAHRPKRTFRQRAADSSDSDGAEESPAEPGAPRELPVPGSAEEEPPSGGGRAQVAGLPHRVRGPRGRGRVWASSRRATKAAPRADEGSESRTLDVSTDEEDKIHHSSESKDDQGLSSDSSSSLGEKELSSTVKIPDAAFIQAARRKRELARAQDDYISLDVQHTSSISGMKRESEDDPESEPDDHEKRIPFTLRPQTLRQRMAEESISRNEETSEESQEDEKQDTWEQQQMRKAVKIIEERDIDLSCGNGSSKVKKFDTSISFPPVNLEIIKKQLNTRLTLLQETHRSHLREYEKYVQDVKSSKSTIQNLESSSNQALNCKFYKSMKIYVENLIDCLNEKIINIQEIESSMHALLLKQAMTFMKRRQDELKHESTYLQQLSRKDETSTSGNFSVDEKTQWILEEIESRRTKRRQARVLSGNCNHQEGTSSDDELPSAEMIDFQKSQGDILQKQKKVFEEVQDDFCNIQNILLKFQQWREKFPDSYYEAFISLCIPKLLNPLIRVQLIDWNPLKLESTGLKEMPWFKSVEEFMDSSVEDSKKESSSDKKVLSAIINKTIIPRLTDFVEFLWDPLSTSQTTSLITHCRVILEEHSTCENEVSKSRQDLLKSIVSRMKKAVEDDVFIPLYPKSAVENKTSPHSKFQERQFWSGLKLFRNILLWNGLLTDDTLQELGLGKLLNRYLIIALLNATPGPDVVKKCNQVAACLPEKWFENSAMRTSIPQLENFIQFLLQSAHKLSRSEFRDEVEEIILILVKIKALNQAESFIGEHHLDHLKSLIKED
UniProt Q96DB9: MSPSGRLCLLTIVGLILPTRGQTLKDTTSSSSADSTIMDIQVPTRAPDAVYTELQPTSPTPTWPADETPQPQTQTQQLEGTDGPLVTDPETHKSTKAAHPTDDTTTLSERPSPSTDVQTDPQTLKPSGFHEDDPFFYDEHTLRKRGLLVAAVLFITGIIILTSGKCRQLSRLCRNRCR
UniProt Q86SR1: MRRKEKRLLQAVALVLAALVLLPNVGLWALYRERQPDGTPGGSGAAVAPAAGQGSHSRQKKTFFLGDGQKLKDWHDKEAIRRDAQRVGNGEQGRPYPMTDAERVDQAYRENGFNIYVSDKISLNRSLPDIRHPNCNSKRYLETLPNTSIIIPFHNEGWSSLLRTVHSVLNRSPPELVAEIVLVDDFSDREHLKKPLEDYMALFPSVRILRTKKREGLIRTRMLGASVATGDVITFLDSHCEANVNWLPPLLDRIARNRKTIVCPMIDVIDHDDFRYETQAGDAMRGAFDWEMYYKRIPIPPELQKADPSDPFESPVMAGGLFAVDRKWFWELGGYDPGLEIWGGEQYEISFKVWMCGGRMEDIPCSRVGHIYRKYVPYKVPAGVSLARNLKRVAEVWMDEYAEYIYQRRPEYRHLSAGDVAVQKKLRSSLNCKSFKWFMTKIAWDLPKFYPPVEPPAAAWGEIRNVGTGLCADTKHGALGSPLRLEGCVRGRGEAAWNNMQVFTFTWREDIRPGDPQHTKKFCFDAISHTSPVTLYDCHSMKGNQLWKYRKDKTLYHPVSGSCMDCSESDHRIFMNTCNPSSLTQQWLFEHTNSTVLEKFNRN
UniProt O94915: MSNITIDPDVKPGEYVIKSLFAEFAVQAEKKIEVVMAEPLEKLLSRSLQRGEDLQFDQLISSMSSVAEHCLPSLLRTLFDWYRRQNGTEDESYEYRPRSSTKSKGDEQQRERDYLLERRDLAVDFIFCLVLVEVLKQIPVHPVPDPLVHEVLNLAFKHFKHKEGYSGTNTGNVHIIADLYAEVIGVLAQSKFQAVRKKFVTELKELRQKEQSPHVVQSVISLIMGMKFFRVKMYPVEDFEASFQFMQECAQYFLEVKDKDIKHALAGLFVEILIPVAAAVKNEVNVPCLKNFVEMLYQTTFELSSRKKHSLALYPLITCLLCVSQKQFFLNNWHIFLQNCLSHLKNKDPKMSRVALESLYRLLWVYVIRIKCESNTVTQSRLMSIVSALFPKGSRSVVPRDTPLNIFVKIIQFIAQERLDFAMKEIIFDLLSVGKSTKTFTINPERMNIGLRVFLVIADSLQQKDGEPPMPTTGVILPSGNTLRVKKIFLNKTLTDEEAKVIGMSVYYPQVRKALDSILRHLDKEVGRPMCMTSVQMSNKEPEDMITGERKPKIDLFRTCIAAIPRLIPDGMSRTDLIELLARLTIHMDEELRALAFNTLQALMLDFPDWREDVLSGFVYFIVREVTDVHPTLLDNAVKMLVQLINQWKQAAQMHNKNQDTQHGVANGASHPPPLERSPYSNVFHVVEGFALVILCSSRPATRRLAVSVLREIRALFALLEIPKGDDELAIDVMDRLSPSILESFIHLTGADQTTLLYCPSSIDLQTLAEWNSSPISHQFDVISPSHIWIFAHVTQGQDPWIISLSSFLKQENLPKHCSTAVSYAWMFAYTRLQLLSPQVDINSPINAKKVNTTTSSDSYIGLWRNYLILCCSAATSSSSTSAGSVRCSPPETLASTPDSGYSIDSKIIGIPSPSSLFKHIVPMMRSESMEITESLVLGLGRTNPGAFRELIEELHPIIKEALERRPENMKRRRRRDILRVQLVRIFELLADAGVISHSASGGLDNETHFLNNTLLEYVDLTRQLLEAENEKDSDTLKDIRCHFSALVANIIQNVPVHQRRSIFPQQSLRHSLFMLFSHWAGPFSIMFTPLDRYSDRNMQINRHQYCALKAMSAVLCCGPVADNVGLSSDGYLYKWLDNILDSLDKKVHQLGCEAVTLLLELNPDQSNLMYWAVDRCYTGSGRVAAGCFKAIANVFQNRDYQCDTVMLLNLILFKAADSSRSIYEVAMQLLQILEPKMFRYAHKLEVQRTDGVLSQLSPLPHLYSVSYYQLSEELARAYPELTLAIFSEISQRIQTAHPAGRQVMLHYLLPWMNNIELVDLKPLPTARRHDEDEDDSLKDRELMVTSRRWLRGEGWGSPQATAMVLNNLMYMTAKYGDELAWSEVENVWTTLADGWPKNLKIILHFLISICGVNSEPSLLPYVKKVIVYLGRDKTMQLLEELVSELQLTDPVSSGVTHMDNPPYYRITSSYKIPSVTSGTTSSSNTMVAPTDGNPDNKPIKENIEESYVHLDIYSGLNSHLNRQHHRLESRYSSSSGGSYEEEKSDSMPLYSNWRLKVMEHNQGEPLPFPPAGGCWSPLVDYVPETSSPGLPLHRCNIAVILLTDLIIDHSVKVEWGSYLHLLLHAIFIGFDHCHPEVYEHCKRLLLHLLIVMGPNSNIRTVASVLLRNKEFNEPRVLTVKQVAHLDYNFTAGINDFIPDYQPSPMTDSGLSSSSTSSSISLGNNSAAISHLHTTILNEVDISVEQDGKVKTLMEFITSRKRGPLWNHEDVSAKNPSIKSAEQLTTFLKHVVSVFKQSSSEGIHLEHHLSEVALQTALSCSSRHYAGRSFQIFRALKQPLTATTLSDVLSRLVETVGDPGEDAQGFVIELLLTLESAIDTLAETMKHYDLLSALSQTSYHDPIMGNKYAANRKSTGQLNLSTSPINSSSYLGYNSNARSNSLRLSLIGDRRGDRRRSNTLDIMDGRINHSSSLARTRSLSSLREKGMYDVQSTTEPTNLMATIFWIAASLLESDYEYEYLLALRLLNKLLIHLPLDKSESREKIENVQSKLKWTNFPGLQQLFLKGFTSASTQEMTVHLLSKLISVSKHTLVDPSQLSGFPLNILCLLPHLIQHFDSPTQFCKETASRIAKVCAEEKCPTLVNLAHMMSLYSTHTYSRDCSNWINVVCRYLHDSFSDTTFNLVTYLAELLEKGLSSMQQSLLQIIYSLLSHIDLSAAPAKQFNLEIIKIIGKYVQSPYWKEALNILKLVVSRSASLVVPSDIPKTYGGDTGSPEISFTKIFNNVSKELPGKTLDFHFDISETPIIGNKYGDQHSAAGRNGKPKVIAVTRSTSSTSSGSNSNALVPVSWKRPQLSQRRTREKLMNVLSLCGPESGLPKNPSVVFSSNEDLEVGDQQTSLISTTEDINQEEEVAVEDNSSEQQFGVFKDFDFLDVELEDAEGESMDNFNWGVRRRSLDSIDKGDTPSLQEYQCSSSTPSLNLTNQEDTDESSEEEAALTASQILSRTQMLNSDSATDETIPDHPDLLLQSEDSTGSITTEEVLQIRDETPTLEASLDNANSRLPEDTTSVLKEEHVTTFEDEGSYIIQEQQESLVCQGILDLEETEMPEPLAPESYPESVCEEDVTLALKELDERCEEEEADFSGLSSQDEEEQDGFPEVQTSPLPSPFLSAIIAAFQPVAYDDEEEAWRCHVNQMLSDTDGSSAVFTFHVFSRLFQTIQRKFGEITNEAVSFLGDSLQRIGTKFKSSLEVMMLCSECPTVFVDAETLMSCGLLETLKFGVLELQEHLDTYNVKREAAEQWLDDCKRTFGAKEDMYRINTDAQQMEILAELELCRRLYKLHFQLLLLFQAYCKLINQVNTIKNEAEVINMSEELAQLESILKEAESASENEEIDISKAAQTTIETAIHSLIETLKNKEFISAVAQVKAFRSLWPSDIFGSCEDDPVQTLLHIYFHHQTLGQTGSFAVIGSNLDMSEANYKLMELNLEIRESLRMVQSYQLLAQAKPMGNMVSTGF

Legend:
Assay in all cases: log2 fold change, soluble protein after heating vs DMSO (PISA); higher = thermal stabilisation; K562 cells, 10 uM, 30 min; active = over 0.2 and 3.5 SD of the protein, either way, in both replicates (recomputed)
[1] = compound: C1=CC(=C(C=C1Cl)C2=NC3=NC=CN=C3C(=N2)NC4=CC=NC=C4)F
In short: (§1)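 K562 cells at 2×10^6 cells/mL were exposed to 10 μM compound for 30 min, then aliquots were heated for 3 min across 48°C-58°C, pooled, and extracted in PBS containing 0.5% NP-40 at 4°C. The supernatant after 21,000xg for 90 min was taken as soluble protein and measured by TMTpro 16plex LC-MS/MS with channel sums equalised. Thermal stability is reported relative to control samples, with values from duplicates. Fold changes are given on a log2 scale.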

[2] = compound: CC(C)(O)CC(=O)NCCn1ccc2ncnc(Nc3ccc(Oc4cccc(C(F)(F)F)c4)c(Cl)c3)c21
In short: as §1

[3] = compound: C1CCN(C1)C(=O)NC2=CC=CC(=C2)NC3=NC=C(C(=N3)NCCC4=CN=CN4)Br
In short: as §1

[4] = compound: C1CN(CCC1(CC2=CC=C(C=C2)Cl)N)C3=NC=NC4=C3C=CN4
In short: as §1

[5] = compound: CC1=C(C2=C(C=C1)C(=O)C3=CC=CC=C3N2CCCN)C
In short: as §1

IRAK-1-4 Inhibitor I = compound: C1COCCN1CCN2C3=CC=CC=C3N=C2NC(=O)C4=CC(=CC=C4)[N+](=O)[O-] [IRAK-1-4 Inhibitor I]
In short: as §1

pinometostat = compound: CC(C)N(C[C@H]1O[C@@H](n2cnc3c(N)ncnc32)[C@H](O)[C@@H]1O)[C@H]1C[C@@H](CCc2nc3cc(C(C)(C)C)ccc3[nH]2)C1 [pinometostat]
In short: as §1

[6] = compound: C1=CC2=NC=CN=C2C=C1/C=C/3\C(=O)NC(=O)S3
In short: as §1

ibrutinib = compound: C=CC(=O)N1CCC[C@@H](n2nc(-c3ccc(Oc4ccccc4)cc3)c3c(N)ncnc32)C1 [ibrutinib]
In short: as §1

erlotinib = compound: C#Cc1cccc(Nc2ncnc3cc(OCCOC)c(OCCOC)cc23)c1 [erlotinib]
In short: as §1

[7] = compound: C1=CC(=CC=C1C2=NC3=C(N2)C=C(C=C3)C(=O)N)OC4=CC=C(C=C4)Cl
In short: as §1

[8] = compound: CC(C)C1=C2N=C(C=C(N2N=C1)NCC3=CC=CC=C3)NCCCCCCN
In short: as §1

[9] = compound: CC1=C(C(CC(=O)N1)C2=CC=C(C=C2)C(F)(F)F)C(=O)NC3=C(C=C4C(=C3)C=NN4)F
In short: as §1

[10] = compound: C/C(=N\NC(=O)C1=CC(=CC=C1)S(=O)(=O)N2CCOCC2)/C3=C(C=CC(=C3)Cl)O
In short: as §1

[11] = compound: C1=CC2=C(C=CC(=C2)/C=C\3/C(=O)NC(=NCC4=CC=CS4)S3)N=C1
In short: as §1

[12] = compound: C1=CC=C(C=C1)C2=NC(=C(N2)C3=CC=NC=C3)C4=CC(=C(C=C4)Cl)O
In short: as §1

[13] = compound: C1=CC=C2C(=C1)C3=NNC4=CC=CC(=C43)C2=O
In short: as §1

[14] = compound: CC(=O)c1cnc2ccc(-c3cc(Cl)c(O)c(Cl)c3)nc2c1N[C@H]1CC[C@H](CN(C)C)CC1
In short: as §1

ralimetinib = compound: CC(C)(C)Cn1c(N)nc2ccc(-c3[nH]c(C(C)(C)C)nc3-c3ccc(F)cc3)nc21 [ralimetinib]
In short: as §1

[15] = compound: CC(C)C[C@@H](C=O)NC(=O)[C@H](CC(C)C)NC(=O)[C@H](CC(C)C)NC(=O)OCc1ccccc1
In short: as §1

Measured: log2 fold change

FUT1 (UniProt P19526)
inactive: [1] -0.121 | [2] -0.094

GANAB (UniProt Q14697)
inactive: [3] 0.583 | [4] -0.037 | [5] 0.081

FZR1 (UniProt Q9UM11)
inactive: IRAK-1-4 Inhibitor I -0.078 | pinometostat 0.196

GFOD2 (UniProt Q3B7J2)
inactive: [1] 0.091 | [2] -0.385

G6PD (UniProt E7EUI8)
inactive: IRAK-1-4 Inhibitor I -0.215 | pinometostat -0.176

GALNT7 (UniProt H0YAH3)
inactive: [1] -0.103 | [6] -0.171 | IRAK-1-4 Inhibitor I 0.008 | ibrutinib 0.187 | [2] -0.029 | pinometostat -0.064

G6PC3 (UniProt Q9BUM1)
inactive: erlotinib 0.006 | [7] -0.004 | [8] -0.056 | [9] 0.013

GCFC2 isoform 3 (UniProt P16383)
inactive: erlotinib -0.077 | [7] -0.094 | [3] -0.332 | [4] 0.105 | [8] -0.032 | [5] -0.234

FXYD5 (UniProt Q96DB9)
inactive: [10] -0.021 | [11] 0.227 | [12] -0.059 | [13] -0.044 | IRAK-1-4 Inhibitor I -0.112 | [14] -0.219 | ralimetinib -0.055 | [15] 0.101 | pinometostat -0.121

GALNT10 (UniProt Q86SR1)
inactive: [10] -0.05 | [1] -0.055 | [11] 0.056 | [6] 0.037 | [13] 0.09 | IRAK-1-4 Inhibitor I -0.003 | ibrutinib 0.004 | [14] -0.005 | [2] -0.011 | pinometostat -0.001 | [9] 0.009

FRYL isoform 2 (UniProt O94915)
inactive: [10] 0.02 | [1] 0.064 | [11] 0.084 | [12] 0.032 | [13] -0.121 | [14] -0.032 | ralimetinib 0.075 | [2] -0.069 | [15] -0.087
